Some entries share one result that the patent states for a list of compounds.
Tests used:
Format in all cases: in vivo
Plutella xylostella = Plutella xylostella (Diamond back moth) larvae test on artificial diet; settings: 18.2 ppm by pipetting on artificial diet, L2 larvae, 5 days; larval mortality, antifeedant, growth regulation
Heliothis virescens = Heliothis virescens (Tobacco budworm) egg test on artificial diet; settings: 200 ppm by pipetting, eggs (0-24 h old) on artificial diet, 4 days; egg mortality, larval mortality, growth regulation
Aedes aegypti = Aedes aegypti (Yellow fever mosquito) larvae test; settings: 2 ppm, L2 larvae in 96-well plates, 2 days; mortality and growth inhibition
Myzus persicae = Myzus persicae (Green peach aphid) sunflower leaf disc spray test; settings: 200 ppm sprayed on sunflower leaf discs, aphid population of mixed ages, 6 DAT; mortality
Spodoptera littoralis = Spodoptera littoralis (Egyptian cotton leafworm) cotton leaf disc spray test; settings: 200 ppm sprayed on cotton leaf discs, 5 L1 larvae, 3 DAT; mortality, repellent effect, feeding behaviour, growth regulation
Diabrotica balteata = Diabrotica balteata (Corn root worm) larvae test on artificial diet; settings: 200 ppm (concentration in well 18 ppm) on artificial diet, L2 larvae, 5 days; larval mortality, growth regulation

O=C(c1ccnc(Cl)c1)N1CC2(CCN(C/C=C/c3ccc(Cl)cc3)CC2)c2cccnc21 [CCCIII-3]
at least 80%: control of Plutella xylostella (Plutella xylostella) | control of Heliothis virescens (Heliothis virescens) | control of Aedes aegypti (Aedes aegypti) | control of Myzus persicae (Myzus persicae) | control of Spodoptera littoralis (Spodoptera littoralis)

O=C(c1cc(Cl)nc(Cl)c1)N1CC2(CCN(C/C=C/c3ccc(Cl)cc3)CC2)c2cccnc21 [CCCV-3]
at least 80%: control of Plutella xylostella (Plutella xylostella) | control of Diabrotica balteata (Diabrotica balteata) | control of Heliothis virescens (Heliothis virescens) | control of Aedes aegypti (Aedes aegypti) | control of Myzus persicae (Myzus persicae) | control of Spodoptera littoralis (Spodoptera littoralis)

O=C(c1cc(Cl)nc(Cl)c1)N1CC2(CCN(C/C=C/c3ccc(C(F)(F)F)cc3)CC2)c2ncc(Cl)cc21 [Compound V-213]
at least 80%: control of Plutella xylostella (Plutella xylostella) | control of Diabrotica balteata (Diabrotica balteata) | control of Heliothis virescens (Heliothis virescens) | control of Aedes aegypti (Aedes aegypti) | control of Myzus persicae (Myzus persicae) | control of Spodoptera littoralis (Spodoptera littoralis)

O=C(c1cc(Cl)nc(Cl)c1)N1CC2(CCN(C/C=C/c3ccc(OC(F)(F)F)cc3)CC2)c2ncc(F)cc21 [Compound V-237]
at least 80%: control of Plutella xylostella (Plutella xylostella) | control of Diabrotica balteata (Diabrotica balteata) | control of Heliothis virescens (Heliothis virescens) | control of Aedes aegypti (Aedes aegypti) | control of Spodoptera littoralis (Spodoptera littoralis)

O=C(c1ccnc(Cl)c1)N1CC2(CCN(C/C=C/c3ccc(Cl)cc3)CC2)c2sccc21 [DCIII-3]
at least 80%: control of Heliothis virescens (Heliothis virescens) | control of Aedes aegypti (Aedes aegypti) | control of Myzus persicae (Myzus persicae)

O=C(c1ccncc1)N1CC2(CCN(C/C=C/c3ccc(C(F)(F)F)cc3)CC2)c2nc(F)ccc21 [II-29]
at least 80%: control of Plutella xylostella (Plutella xylostella) | control of Diabrotica balteata (Diabrotica balteata) | control of Heliothis virescens (Heliothis virescens) | control of Aedes aegypti (Aedes aegypti) | control of Spodoptera littoralis (Spodoptera littoralis)

O=C(c1ccncc1)N1CC2(CCN(C/C=C/c3ccc(OC(F)(F)F)cc3)CC2)c2nc(F)ccc21 [II-30]
at least 80%: control of Plutella xylostella (Plutella xylostella) | control of Diabrotica balteata (Diabrotica balteata) | control of Heliothis virescens (Heliothis virescens) | control of Aedes aegypti (Aedes aegypti) | control of Spodoptera littoralis (Spodoptera littoralis)

O=C(c1ccnc(Cl)c1)N1CC2(CCN(C/C=C/c3ccc(Cl)cc3)CC2)c2ncccc21 [III-3]
at least 80%: control of Plutella xylostella (Plutella xylostella) | control of Heliothis virescens (Heliothis virescens) | control of Aedes aegypti (Aedes aegypti) | control of Myzus persicae (Myzus persicae) | control of Spodoptera littoralis (Spodoptera littoralis)

O=C(c1ccnc(Cl)c1)N1CC2(CCN(C/C=C/c3ccc(OC(F)(F)F)cc3)CC2)c2ncccc21 [III-7]
at least 80%: control of Plutella xylostella (Plutella xylostella) | control of Heliothis virescens (Heliothis virescens) | control of Aedes aegypti (Aedes aegypti) | control of Myzus persicae (Myzus persicae) | control of Spodoptera littoralis (Spodoptera littoralis)

O=C(c1ccnc(Cl)c1)N1CC2(CCN(C/C=C/c3ccc(C(F)(F)F)cc3)CC2)c2nc(F)ccc21 [III-29]
at least 80%: control of Plutella xylostella (Plutella xylostella) | control of Diabrotica balteata (Diabrotica balteata) | control of Heliothis virescens (Heliothis virescens) | control of Aedes aegypti (Aedes aegypti) | control of Spodoptera littoralis (Spodoptera littoralis)

O=C(c1ccnc(Cl)c1)N1CC2(CCN(C/C=C/c3ccc(OC(F)(F)F)cc3)CC2)c2nc(F)ccc21 [III-30]
at least 80%: control of Plutella xylostella (Plutella xylostella) | control of Diabrotica balteata (Diabrotica balteata) | control of Heliothis virescens (Heliothis virescens) | control of Aedes aegypti (Aedes aegypti) | control of Spodoptera littoralis (Spodoptera littoralis)

O=C(c1ccnc(Cl)c1)N1CC2(CCN(C/C=C/c3ccc(C(F)(F)F)cc3)CC2)c2ncc(F)cc21 [III-236]
at least 80%: control of Plutella xylostella (Plutella xylostella) | control of Diabrotica balteata (Diabrotica balteata) | control of Heliothis virescens (Heliothis virescens) | control of Aedes aegypti (Aedes aegypti) | control of Spodoptera littoralis (Spodoptera littoralis)

O=C(c1ccnc(Cl)c1)N1CC2(CCN(C/C=C/c3ccc(OC(F)(F)F)cc3)CC2)c2ncc(F)cc21 [III-237]
at least 80%: control of Plutella xylostella (Plutella xylostella) | control of Diabrotica balteata (Diabrotica balteata) | control of Heliothis virescens (Heliothis virescens) | control of Aedes aegypti (Aedes aegypti) | control of Spodoptera littoralis (Spodoptera littoralis)

O=C(c1ccnc(F)c1)N1CC2(CCN(C/C=C/c3ccc(C(F)(F)F)cc3)CC2)c2nc(F)ccc21 [VIII-29]
at least 80%: control of Plutella xylostella (Plutella xylostella) | control of Diabrotica balteata (Diabrotica balteata) | control of Heliothis virescens (Heliothis virescens) | control of Aedes aegypti (Aedes aegypti) | control of Myzus persicae (Myzus persicae) | control of Spodoptera littoralis (Spodoptera littoralis)

O=C(c1ccnc(F)c1)N1CC2(CCN(C/C=C/c3ccc(OC(F)(F)F)cc3)CC2)c2nc(F)ccc21 [VIII-30]
at least 80%: control of Plutella xylostella (Plutella xylostella) | control of Diabrotica balteata (Diabrotica balteata) | control of Heliothis virescens (Heliothis virescens) | control of Aedes aegypti (Aedes aegypti) | control of Spodoptera littoralis (Spodoptera littoralis)

O=C(NCc1cnc(Cl)s1)N1CC2(CCN(C/C=C/c3ccc(OC(F)(F)F)cc3)CC2)c2nc(F)ccc21 [XX-30]
at least 80%: control of Plutella xylostella (Plutella xylostella) | control of Diabrotica balteata (Diabrotica balteata) | control of Heliothis virescens (Heliothis virescens) | control of Aedes aegypti (Aedes aegypti) | control of Spodoptera littoralis (Spodoptera littoralis)

O=C(NCc1cnc(Cl)s1)N1CC2(CCN(C/C=C/c3ccc(OC(F)(F)F)cc3)CC2)c2ncc(F)cc21 [XX-237]
at least 80%: control of Plutella xylostella (Plutella xylostella) | control of Diabrotica balteata (Diabrotica balteata) | control of Heliothis virescens (Heliothis virescens) | control of Aedes aegypti (Aedes aegypti) | control of Spodoptera littoralis (Spodoptera littoralis)
